In the assay the target is XRCC1-LacI-RFP (UniProt P18887). Kind of assay: F2H assay, BHK cells.

Chains of the proteins cited; added tags and fusions are not shown. Lines headed by an entry give the natural chain unless they say otherwise; changes in a name come on top.
UniProt P18887: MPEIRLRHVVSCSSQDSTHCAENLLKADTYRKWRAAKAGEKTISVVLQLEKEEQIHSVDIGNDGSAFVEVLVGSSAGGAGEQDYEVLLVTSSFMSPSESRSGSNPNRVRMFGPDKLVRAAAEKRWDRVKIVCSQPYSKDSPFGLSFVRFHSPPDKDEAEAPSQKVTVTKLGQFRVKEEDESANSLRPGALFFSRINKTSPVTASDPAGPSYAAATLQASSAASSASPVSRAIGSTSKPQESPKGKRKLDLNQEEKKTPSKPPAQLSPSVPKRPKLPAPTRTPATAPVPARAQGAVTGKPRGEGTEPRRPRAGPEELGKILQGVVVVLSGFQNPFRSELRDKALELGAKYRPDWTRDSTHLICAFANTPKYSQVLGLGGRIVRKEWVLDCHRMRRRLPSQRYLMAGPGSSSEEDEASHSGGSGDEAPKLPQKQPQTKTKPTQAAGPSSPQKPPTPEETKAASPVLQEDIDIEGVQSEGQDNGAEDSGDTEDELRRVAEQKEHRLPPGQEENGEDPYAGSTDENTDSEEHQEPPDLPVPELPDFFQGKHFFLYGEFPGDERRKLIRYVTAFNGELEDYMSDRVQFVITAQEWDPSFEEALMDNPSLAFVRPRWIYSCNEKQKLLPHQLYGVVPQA
UniProt P09874: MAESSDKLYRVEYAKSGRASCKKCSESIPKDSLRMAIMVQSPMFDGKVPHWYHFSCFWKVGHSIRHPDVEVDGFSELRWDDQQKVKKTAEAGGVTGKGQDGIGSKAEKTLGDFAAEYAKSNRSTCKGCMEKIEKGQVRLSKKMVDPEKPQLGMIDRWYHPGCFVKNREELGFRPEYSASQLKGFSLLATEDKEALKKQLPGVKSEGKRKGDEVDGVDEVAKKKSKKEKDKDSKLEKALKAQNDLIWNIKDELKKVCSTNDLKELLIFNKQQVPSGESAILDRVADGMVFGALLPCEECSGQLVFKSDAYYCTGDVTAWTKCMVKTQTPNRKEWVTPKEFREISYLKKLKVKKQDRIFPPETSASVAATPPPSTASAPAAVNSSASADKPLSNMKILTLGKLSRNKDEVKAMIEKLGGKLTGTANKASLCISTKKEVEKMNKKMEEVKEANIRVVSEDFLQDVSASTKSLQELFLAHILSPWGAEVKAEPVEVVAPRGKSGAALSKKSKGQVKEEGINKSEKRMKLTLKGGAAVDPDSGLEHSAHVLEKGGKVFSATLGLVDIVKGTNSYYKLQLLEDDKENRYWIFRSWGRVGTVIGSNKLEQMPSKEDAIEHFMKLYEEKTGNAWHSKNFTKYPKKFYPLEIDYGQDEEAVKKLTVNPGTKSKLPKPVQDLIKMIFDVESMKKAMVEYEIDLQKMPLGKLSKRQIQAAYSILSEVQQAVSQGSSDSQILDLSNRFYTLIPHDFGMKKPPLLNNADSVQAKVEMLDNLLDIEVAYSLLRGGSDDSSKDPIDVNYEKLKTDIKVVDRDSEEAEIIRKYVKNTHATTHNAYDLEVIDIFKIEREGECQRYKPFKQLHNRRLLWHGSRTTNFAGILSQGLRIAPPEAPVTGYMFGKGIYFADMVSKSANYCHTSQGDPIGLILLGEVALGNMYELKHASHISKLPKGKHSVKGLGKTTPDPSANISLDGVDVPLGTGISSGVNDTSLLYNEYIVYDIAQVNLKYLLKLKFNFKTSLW
UniProt P12004: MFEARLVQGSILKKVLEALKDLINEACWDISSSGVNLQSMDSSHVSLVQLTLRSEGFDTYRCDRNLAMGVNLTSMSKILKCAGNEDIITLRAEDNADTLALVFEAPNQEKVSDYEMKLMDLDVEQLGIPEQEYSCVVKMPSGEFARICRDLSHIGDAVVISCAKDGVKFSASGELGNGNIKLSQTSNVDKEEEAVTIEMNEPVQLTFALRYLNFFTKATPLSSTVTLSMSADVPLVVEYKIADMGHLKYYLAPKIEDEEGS

Consider two substances from patent US20100285487A1.

These are yes or no findings as the source states them, for the method shown. Some binding calls cover weakened binding; strength is not graded here.

With GFP-PARP-1 (from UniProt P09874 1-1014), the binding result was “binds”.

GFP-PCNA (from UniProt P12004 1-261): the binding result is “binds”.
